Test results taken from PubChem BioAssay AID1259415 (National Center for Advancing Translational Sciences (NCATS), 2018).
The whole screen tested about 410,000 compounds, of which about 18,000 (4.4%) were called active. Inconclusive means that the source gave no clear call. Such entries were picked first, then a sample of the others. Cut-off read from the data, not from the text of the source: active = activity change below about -60%; inconclusive = no clear call, values can overlap the other calls; inactive = above about -39%.

experiment: qHTS Assay for inhibitors of the human cytomegalovirus (HCMV); conditions: HFF cells, HCMV-luciferase reporter, 72 h; at 57.5 µM; stronger effect = lower value
Procedure, shortened: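 Luciferase read-out from HCMV-luciferase-infected HFFs (MOI 1 PFU/cell) 72 h post infection at 37C; compounds added after 16 h cell attachment; activity normalized between buffer-only basal and Salinomycin (10uM) inhibitor controls.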
% is set by controls: 0 for no effect and ±100 for the full control effect.

| SMILES | activity change, negative = inhibition |
| --- | --- |
| Cc1ccc(CCNC(=O)Cn2c(-c3cccs3)cc3ccccc32)cc1 | inactive: 3.16% |
| Nc1nc(-c2ccccc2)c(N=Nc2ccccc2Cl)s1 | inactive: 43.6% |
| C[C@H]1c2cccc(O)c2C(O)=C2C(=O)C3(O)C(O)=C(C(N)=O)C(=O)[C@@H](N(C)C)[C@@H]3[C@@H](O)[C@@H]21 (stereo not given in full) | inconclusive: -50.8% |
| NC(c1csc(Nc2nncc3ccccc23)n1)C1CCCCC1 (stereo not given) | inactive: 15% |
| CCN(CC)c1ccc(/C=C(/C#N)C(=O)NCc2ccccc2)o1 | inactive: 15.1% |
| CCc1[nH]nc(C(=O)N2CCCC(C(=O)c3cccc(C(F)(F)F)c3)C2)c1C (stereo not given) | inconclusive: -53% |
| Cc1nnc(SCC(=O)c2c(N)n(C3CC3)c(=O)[nH]c2=O)n1-c1ccccc1 | inconclusive: -43.3% |
| CCC(C)NC(=O)c1ccccc1NC(=O)C1COc2ccccc2O1 (stereo not given) | inconclusive: -47.8% |
| O=C(Nc1ccc2c(c1)CCCN2C(=O)c1cccs1)c1ccc(F)c(F)c1 | inconclusive: -41.5% |
| C=C1C(=O)O[C@@H]2C[C@@H](C)[C@H]3C=CC(=O)[C@]3(O)C[C@@H]12 | inconclusive: -59.7% |
| C=C(C)CSc1nc(N)c2c3c(sc2n1)CCC3 | inactive: 31.9% |
| Nc1nc(Cl)c(C=O)c(N2CCCCC2)n1 | inconclusive: -43.6% |
| CCn1c2ccccc2c2cc(NC(=O)c3cccc(OC)c3OC)ccc21 | inactive: -2.57% |
| COc1cc(C2NC(=O)NC(C)=C2C(=O)OC2CCCCC2)cc(Br)c1O (stereo not given) | inactive: -29.4% |
| Cc1cc(F)c(F)c(C(=O)N2CCC(C)CC2)c1Cl | inconclusive: -44.9% |
| O=C1CCC/C(=N/NC(=O)c2sc3ccccc3c2Cl)C1 | inactive: 122% |
| Cc1ccc(Cl)cc1NC(=O)c1ccccc1OCC(=O)Nc1ccc(Cl)cc1 | inactive: 19.7% |
| COc1ccc(-n2ncc3c2CC(C)(C)CC3NC(=O)c2cnc(C)cn2)cc1 (stereo not given) | active: -64.1% |
| COc1ccccc1C1CC(c2ccccc2)=NN1C(=O)c1ccccc1 (stereo not given) | inactive: 61.2% |
| CNC(=O)/C(C#N)=C/c1c(F)cccc1Cl | active: -80.3% |
| Cc1nc(SC(C)C(=O)NC2CCCCC2C)c2c(C)c(C)sc2n1 (stereo not given) | inconclusive: -41.3% |
| CCOc1ccc2c(c1)c(C(C)=O)c(C)n2-c1ccccc1 | inconclusive: -41.5% |

Some of the entries above, set out differently.
SMILES | activity change, negative = inhibition
Cc1cc(F)c(F)c(C(=O)N2CCC(C)CC2)c1Cl | inconclusive: -44.9%
O=C1CCC/C(=N/NC(=O)c2sc3ccccc3c2Cl)C1 | inactive: 122%
Cc1ccc(Cl)cc1NC(=O)c1ccccc1OCC(=O)Nc1ccc(Cl)cc1 | inactive: 19.7%
COc1ccc(-n2ncc3c2CC(C)(C)CC3NC(=O)c2cnc(C)cn2)cc1 (stereo not given) | active: -64.1%
COc1ccccc1C1CC(c2ccccc2)=NN1C(=O)c1ccccc1 (stereo not given) | inactive: 61.2%

Remaining list, next part:

| SMILES | activity change, negative = inhibition |
| --- | --- |
| CN1CCN(c2nc(-c3ccc(Br)cc3)nnc2-c2ccccc2)CC1 | inactive: 34.9% |
| O=C(Nc1ccc(Oc2ccc(Cl)cc2)c(Cl)c1)c1cc(I)cc(I)c1O | inconclusive: -57.6% |
| NC(=O)N/N=C/c1ccc2cccc(OCc3ccccc3)c2n1 | inactive: -4.88% |
| O=C(CCNC(=O)c1ccccc1)Nc1ccc(F)c(Cl)c1 | inconclusive: -51.6% |
| COc1ccc(S(=O)(=O)N2CCOCC2)cc1NC(=O)CSc1nnnn1C1CC1 | active: -60.4% |
| COc1ccc(N(Cc2cc3ccccc3[nH]c2=O)C(=O)C2CCCO2)cc1 (stereo not given) | active: -64.7% |
| Cc1cccc2cc(CN(Cc3cccs3)Cc3nnnn3Cc3ccccc3)c(=O)[nH]c12 | inconclusive: -55.9% |
| Cc1cccc(C(=O)NC(=S)Nc2ccc(Cc3ccncc3)cc2)c1 | inconclusive: -58.1% |
| Cc1ccc(C2=CC(c3ccc(C)cc3)n3ncnc3N2)cc1 (stereo not given) | inconclusive: -46.4% |
| O=C1CN(C(=O)COC(=O)c2ccccc2NCc2ccco2)c2ccccc2N1 | inconclusive: -47.9% |
| N/C(=N\OC(=O)c1ccc([N+](=O)[O-])cc1)c1cccnc1 | inactive: -5.74% |
| CS(=O)(=O)N1CCC(c2noc(-c3ccc(C(F)(F)F)cc3)n2)CC1 | inconclusive: -59.9% |
| CCC(CC)NC(=O)c1cc(OC)c(OC)cc1[N+](=O)[O-] | inactive: -31.5% |
| CCOc1ccccc1C1C(C(=O)Nc2ccccc2)=C(C)Nc2nc(SCC(=O)c3ccc(C)cc3)nn21 (stereo not given) | active: -71.7% |
| CCOP(=O)(OCC)C(Cc1ccc(OC)c(OC)c1)N=C(c1ccccc1)c1ccccc1 (stereo not given) | inconclusive: -48.8% |
| COc1ccc(C(=O)c2sc3nc4c(c(C(F)(F)F)c3c2N)CN(C(C)=O)CC4)cc1OC | inconclusive: -49.8% |
| CCN(CC)c1nc(N)c2c(N)nc(OC)cc2c1C#N | inactive: 33% |
| O=C(NCCN1C(=O)S/C(=C/c2ccccc2)C1=O)C1CCCN1C(=O)c1cccs1 (stereo not given) | inconclusive: -55.6% |
| Cc1ccc(NC(=O)Cc2nn(C)c(=O)c3ccccc23)cc1F | inconclusive: -52.9% |
| Cc1ccc2nc(SCC(=O)Nc3nonc3N)[nH]c2c1 | inconclusive: -54.6% |
| Clc1ccc(-n2ncc3c(N4CCCC4)ncnc32)cc1 | active: -66.1% |
| Cc1ccc(-c2c3c(=O)n(C)c(=O)n(C)c3c3n2-c2ccccc2NC3c2ccc(C)cc2O)cc1 (stereo not given) | active: -96.1% |

| SMILES | activity change, negative = inhibition |
| --- | --- |
| CC(C)N1CCC1(C)C(=O)Nc1cc(-c2ccccc2)nn1C (stereo not given) | inactive: -6.47% |
| O=C(c1cc2ccccc2[nH]1)N(Cc1cccnc1)CC1CCCN(C2CCCCC2)C1 (stereo not given) | inactive: 40% |
| O=C(N1CCN(c2ccccn2)CC1)N1c2ccccc2Sc2ccccc21 | active: -66.5% |
| CC(C)CCn1c(=O)c2ccccc2n2c(CN3C(=O)NC4(CCC(C)CC4)C3=O)nnc12 (stereo not given) | inconclusive: -51.6% |
| Cc1c(NC(=O)c2c(NC(=O)CNC3CC3)sc3c2CCCC3)c(=O)n(-c2ccccc2)n1C | inconclusive: -49.7% |
| Cc1ccc(C(=O)Nc2ccc3ccccc3c2)cc1 | inconclusive: -53.7% |
| CC1(C)c2[nH]c3ccccc3c2C[C@H]2C(=O)N(Cc3ccccc3F)C(=O)N21 | inconclusive: -55.4% |
| FC(F)(F)C1=NNC(c2ccc3ccccc3c2)=NN1 | inactive: -34.5% |
| COc1ccc(-c2noc(CCC(=O)NCc3ccco3)n2)cc1 | inconclusive: -48.4% |
| Cc1ccccc1NC(=O)C1CCN(S(=O)(=O)c2c(C)noc2/C=C/c2ccco2)CC1 | inactive: -15.5% |
| CCOC(=O)CC(NC(=O)c1cccs1)c1ccc(OCC)cc1 (stereo not given) | inactive: 3.75% |
| COc1ccccc1-c1cn(S(=O)(=O)c2ccc(F)cc2)nc1N | inconclusive: -50.3% |
| COc1ccc(C(=O)Nc2c(C(C)(C)C)nn(C)c2C(C)(C)C)cc1 | inconclusive: -40.9% |
| Cc1cc(N2C(=O)C(O)=C(C(=O)c3ccco3)C2c2cccc(Cl)c2)no1 (stereo not given) | inconclusive: -47.9% |
| CC(C)[C@@H](C(=O)NC1CCN(Cc2ccccc2)CC1)N1C(=O)N2CCc3c([nH]c4ccccc34)[C@@]2(C)C1=O | active: -65.2% |
| COc1cccc(C(=O)Nc2nc3ccccc3s2)c1 | inactive: 48.9% |
| COc1ccc(C(=O)Nc2ccc(C)cc2C(=O)c2ccccc2)c(OC)c1 | inconclusive: -40.9% |
| CCCC(=O)Nc1cc(OC)c(NC(=S)Nc2cccc(C)c2)cc1OC | inconclusive: -48.3% |
| Cc1ccc(C(=O)c2oc3ccccc3c2NC(=O)c2cc(-c3cc(C)ccc3O)n[nH]2)cc1 | active: -62.7% |
| NS(=O)(=O)c1ccc(O)c(NC(=O)c2ccc([N+](=O)[O-])o2)c1 | inconclusive: -43.8% |
| CN(C)S(=O)(=O)c1ccc(NC(=O)C2CCCN(C(=O)c3ccc(Cl)cc3)C2)cc1 (stereo not given) | inconclusive: -44.8% |
| COC(=O)Cc1csc(Nc2ccc(F)c(Cl)c2)n1 | inconclusive: -56% |

| SMILES | activity change, negative = inhibition |
| --- | --- |
| Cc1csc2nc(COC(=O)c3ccc(Cl)c([N+](=O)[O-])c3)cc(=O)n12 | inactive: -13.7% |
| Cc1cccc(OCCc2c(C)[nH]c(=S)[nH]c2=O)c1 | inconclusive: -42.6% |
| CCOC(=O)c1cc2c(=O)n3ccccc3nc2n(C)c1=NC(=O)c1c(-c2c(F)cccc2Cl)noc1C | inconclusive: -41.4% |
| C=Cc1ccc(CC2(C)C(=O)Nc3ccc(-c4cccnc4)cc32)cc1 (stereo not given) | inconclusive: -55% |
| Cc1cc(C)cc(NCc2cc(=O)oc3cc(-c4ccccc4)c(O)cc23)c1 | inconclusive: -50.6% |
| O=C(COC(=O)CNS(=O)(=O)/C=C/c1ccccc1)Nc1cccc2ccccc12 | inactive: -23.9% |
| CCCn1c(=O)c2ccccc2n2c(SCC(=O)/C(C#N)=C(\C)N)nnc12 | inconclusive: -56.9% |
| COCCN(C(=O)CSc1nnc(-c2ccc(Cl)cc2)o1)c1c(N)n(CC(C)C)c(=O)[nH]c1=O | inconclusive: -41.7% |
| COc1ccc2c(=O)c3c(=O)n(Cc4ccco4)c(-c4ccccc4)nc3oc2c1 | inconclusive: -42.6% |
| O=C(O)CCCC(=O)N1N=C(c2c(-c3ccccc3)c3cc(Cl)ccc3[nH]c2=O)CC1c1cccs1 (stereo not given) | inconclusive: -55.7% |
| O=S(=O)(c1ccc(F)cc1)N1CCN(Cc2cc3c(cc2Br)OCCO3)CC1 | inconclusive: -42.6% |
| CCN(CC)C(=O)c1sc(NC(=O)Cc2cccs2)c(C#N)c1C | inactive: -31.8% |
| Cc1ccc(C)c(Nc2nc(-c3ccncc3)nc3ccccc23)c1 | inactive: -1.81% |
| Cc1cc2oc(=O)cc(CN3CCC(C)CC3)c2cc1C | inactive: 16.4% |
| CC(=O)Nc1ccc(Nc2cc(C)nc3c(-c4ccccc4)cnn23)cc1 | active: -91.7% |
| CC(=O)N1c2ccc(S(=O)(=O)NCCC(=O)Nc3ccc(C)c(F)c3)cc2CC1C (stereo not given) | inconclusive: -43% |
| CC(C)N(C(=O)CSc1cn(CC(=O)N2CCCCCC2)c2ccccc12)C(C)C | inconclusive: -40.8% |
| COc1ccc(CNC(=O)CN(C)S(=O)(=O)c2ccc3nc(C)sc3c2)cc1 | inactive: 2.1% |
| CCOC(=O)c1cc2c(=Cc3ccc(N(C)C)cc3)c3ccccc3n2[n+]1C | active: -87.8% |
